Consider 1 substance from paper PMC13577022.

The chains behind the UniProt entries cited, without tags or fusion partners.
UniProt A0A0F6B922: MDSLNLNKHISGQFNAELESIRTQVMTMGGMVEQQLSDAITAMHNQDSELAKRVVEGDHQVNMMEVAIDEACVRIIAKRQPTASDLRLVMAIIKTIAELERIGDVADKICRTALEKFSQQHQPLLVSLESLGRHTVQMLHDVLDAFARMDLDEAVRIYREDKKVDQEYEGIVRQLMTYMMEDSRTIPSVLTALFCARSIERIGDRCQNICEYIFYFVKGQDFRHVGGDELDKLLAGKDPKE

The target in the test is C-terminally GFP-tagged PhoR protein (Salmonella enterica serovar Typhimurium). The test is described as follows: co-IP.

These are yes or no findings as the source states them, for the method shown. Binding seen in cells or lysates may run through a third protein. Binding can be weak; no strength is given.

Take “C-terminally His-tagged wild-type PhoU (from UniProt A0A0F6B922 1-241)”: the binding entry is on record as “binds”.
